Structures can show the parent of a compound that is named as a salt. Some of the results follow. Hit calls seldom repeat between salt and free forms of one compound.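 Kinases were expressed as nanoluciferase fusions in K562 cells and luminescence was read every 4 h between 2 and 18 h as percent of control, DMSO set to 100% and a positive control to 0%. A time point counts as decreased when the signal drops significantly (2 sigma). The hit call is the authors' own, does not follow from the count of time points alone, and its rule is not shown.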
Tests used:
Assay in all cases: kinase-Nluc reporter destabilization hit call (1 = scored as downregulated) (binary); higher = compound decreases kinase abundance
Conditions in all cases: K562, 2-18 h
ERN1 = ERN1 (UniProt O75460)
FGFR2 = FGFR2 (UniProt P21802)
FGFR3 = FGFR3 (UniProt P22607)
FGR = FGR (UniProt P09769)
FLT3 = FLT3 (UniProt P36888)
FYN = FYN (UniProt P06241)
GSK3A = GSK3A (UniProt P49840)
HER2 = HER2 (UniProt P04626)
INSRR = INSRR (UniProt P14616)
IRAK3 = IRAK3 (UniProt Q9Y616)
JAK1 = JAK1 (UniProt P23458)
LCK = LCK (UniProt P06239)
LIMK1 = LIMK1 (UniProt P53667)
LIMK2 = LIMK2 (UniProt P53671)
LMTK2 = LMTK2 (UniProt Q8IWU2)
LYN = LYN (UniProt P07948)
MAP2K1 = MAP2K1 (UniProt Q02750)
MAP2K2 = MAP2K2 (UniProt P36507)
MAP4K2 = MAP4K2 (UniProt Q12851)
FGFR1 = FGFR1 (UniProt P11362)

Protein sequences, listed by entry. Tags and fused reporters are not part of them. Lines headed by an entry give the natural chain unless they say otherwise; changes in a name come on top.
UniProt O75460: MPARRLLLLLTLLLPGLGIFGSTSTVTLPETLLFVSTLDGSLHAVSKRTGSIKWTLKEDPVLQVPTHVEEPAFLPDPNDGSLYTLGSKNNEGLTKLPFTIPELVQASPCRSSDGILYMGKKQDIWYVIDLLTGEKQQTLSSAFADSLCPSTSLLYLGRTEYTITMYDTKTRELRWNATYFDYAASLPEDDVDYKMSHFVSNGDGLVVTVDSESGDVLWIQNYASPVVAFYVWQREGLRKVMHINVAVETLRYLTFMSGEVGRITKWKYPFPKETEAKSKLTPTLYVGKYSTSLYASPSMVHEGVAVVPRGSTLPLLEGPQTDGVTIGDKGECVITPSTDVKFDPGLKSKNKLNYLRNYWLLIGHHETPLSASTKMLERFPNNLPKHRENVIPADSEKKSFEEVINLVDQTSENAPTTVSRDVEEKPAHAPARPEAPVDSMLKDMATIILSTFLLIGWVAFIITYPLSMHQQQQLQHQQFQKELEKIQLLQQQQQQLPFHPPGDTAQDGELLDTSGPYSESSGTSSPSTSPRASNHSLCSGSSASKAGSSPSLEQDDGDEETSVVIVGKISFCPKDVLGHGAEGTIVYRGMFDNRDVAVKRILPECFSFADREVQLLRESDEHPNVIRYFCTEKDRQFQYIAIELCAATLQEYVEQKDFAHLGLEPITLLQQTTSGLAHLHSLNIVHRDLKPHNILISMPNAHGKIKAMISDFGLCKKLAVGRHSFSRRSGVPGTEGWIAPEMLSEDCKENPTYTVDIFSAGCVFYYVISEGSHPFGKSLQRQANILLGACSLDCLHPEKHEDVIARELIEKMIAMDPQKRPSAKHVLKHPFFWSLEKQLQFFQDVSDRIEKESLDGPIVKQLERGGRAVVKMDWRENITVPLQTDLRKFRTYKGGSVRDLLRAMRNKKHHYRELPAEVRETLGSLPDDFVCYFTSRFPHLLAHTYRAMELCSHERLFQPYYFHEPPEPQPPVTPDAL
UniProt P36888, whole entry: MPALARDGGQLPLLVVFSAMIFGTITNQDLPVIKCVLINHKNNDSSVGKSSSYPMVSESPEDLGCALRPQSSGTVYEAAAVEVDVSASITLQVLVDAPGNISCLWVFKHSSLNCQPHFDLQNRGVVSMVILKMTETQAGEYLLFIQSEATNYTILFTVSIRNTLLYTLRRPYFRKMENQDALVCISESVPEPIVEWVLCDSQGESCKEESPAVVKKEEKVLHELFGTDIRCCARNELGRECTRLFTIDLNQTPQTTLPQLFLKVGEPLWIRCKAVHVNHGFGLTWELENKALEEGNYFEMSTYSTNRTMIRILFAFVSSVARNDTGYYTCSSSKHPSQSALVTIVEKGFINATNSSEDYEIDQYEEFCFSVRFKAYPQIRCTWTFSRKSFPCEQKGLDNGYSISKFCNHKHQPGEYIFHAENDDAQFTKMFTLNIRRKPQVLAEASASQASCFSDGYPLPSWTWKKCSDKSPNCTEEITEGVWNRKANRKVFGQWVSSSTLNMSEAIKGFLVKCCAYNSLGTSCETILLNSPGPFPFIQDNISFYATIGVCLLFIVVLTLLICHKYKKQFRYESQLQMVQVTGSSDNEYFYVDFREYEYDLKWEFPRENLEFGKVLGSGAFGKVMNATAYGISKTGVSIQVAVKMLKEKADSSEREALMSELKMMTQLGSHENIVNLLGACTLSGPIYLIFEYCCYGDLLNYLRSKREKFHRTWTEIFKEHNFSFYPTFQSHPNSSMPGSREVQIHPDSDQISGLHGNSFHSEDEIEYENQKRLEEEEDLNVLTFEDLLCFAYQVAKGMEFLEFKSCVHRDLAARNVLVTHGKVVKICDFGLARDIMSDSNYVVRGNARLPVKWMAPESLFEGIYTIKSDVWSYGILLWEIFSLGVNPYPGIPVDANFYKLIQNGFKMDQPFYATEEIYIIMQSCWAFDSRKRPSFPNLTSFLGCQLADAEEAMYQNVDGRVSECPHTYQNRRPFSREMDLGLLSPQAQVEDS
UniProt P06241, whole entry, looked up: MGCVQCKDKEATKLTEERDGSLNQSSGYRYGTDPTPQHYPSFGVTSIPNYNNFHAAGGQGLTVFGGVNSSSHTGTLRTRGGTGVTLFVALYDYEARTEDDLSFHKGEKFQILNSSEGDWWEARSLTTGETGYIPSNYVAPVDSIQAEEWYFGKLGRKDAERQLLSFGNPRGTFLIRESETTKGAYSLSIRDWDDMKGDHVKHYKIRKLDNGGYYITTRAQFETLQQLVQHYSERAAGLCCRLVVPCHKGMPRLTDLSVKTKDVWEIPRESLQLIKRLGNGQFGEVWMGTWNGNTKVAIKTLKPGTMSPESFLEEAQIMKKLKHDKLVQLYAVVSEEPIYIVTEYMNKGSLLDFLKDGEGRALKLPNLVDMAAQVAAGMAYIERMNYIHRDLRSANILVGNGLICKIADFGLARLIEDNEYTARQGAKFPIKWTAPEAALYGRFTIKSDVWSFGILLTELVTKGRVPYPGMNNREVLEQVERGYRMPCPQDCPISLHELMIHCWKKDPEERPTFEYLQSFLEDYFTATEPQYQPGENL
UniProt Q9Y616: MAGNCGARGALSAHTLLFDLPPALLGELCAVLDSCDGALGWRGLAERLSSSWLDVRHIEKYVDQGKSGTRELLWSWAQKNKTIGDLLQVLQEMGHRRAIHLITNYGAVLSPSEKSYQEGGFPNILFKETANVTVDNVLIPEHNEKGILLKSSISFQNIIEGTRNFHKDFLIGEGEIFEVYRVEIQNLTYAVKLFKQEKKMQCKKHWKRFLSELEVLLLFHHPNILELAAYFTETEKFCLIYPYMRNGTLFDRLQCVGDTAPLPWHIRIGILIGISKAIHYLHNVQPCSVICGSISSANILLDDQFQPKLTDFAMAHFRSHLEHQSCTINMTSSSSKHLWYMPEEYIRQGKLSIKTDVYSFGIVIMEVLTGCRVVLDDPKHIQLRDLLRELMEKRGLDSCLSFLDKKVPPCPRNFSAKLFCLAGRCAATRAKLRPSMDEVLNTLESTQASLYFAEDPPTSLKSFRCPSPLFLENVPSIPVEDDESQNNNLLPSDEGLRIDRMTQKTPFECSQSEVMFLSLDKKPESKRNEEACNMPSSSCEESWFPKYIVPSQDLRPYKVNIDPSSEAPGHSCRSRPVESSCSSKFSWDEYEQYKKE
UniProt P23458: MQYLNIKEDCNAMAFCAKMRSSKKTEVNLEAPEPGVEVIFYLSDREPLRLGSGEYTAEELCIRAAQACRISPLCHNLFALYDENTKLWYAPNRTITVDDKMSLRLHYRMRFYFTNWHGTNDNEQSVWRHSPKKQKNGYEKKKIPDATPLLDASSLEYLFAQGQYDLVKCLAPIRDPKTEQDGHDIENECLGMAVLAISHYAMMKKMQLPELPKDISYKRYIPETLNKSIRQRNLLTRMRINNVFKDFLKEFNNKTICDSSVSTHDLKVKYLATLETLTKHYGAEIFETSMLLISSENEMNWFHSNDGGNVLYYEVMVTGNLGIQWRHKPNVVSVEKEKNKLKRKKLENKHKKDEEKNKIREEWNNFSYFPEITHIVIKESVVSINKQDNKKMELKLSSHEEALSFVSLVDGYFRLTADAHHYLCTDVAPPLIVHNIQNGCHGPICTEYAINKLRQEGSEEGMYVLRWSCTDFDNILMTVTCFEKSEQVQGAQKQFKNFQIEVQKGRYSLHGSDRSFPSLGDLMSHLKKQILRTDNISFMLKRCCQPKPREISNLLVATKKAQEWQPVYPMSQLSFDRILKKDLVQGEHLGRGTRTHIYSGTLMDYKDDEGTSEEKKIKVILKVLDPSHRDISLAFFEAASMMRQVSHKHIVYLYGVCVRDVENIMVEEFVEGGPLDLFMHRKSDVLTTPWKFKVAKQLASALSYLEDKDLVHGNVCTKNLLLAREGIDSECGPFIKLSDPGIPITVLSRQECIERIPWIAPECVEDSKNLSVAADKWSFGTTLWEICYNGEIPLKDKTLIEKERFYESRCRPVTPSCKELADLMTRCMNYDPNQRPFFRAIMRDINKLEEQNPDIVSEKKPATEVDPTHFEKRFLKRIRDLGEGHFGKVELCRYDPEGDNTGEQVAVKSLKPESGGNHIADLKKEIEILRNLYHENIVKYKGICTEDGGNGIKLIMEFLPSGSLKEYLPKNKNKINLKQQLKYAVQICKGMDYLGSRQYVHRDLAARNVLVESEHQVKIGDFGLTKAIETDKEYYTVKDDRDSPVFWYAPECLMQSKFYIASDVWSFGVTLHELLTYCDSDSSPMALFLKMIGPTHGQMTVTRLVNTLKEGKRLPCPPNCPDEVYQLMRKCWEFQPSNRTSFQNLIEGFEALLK
UniProt P53667: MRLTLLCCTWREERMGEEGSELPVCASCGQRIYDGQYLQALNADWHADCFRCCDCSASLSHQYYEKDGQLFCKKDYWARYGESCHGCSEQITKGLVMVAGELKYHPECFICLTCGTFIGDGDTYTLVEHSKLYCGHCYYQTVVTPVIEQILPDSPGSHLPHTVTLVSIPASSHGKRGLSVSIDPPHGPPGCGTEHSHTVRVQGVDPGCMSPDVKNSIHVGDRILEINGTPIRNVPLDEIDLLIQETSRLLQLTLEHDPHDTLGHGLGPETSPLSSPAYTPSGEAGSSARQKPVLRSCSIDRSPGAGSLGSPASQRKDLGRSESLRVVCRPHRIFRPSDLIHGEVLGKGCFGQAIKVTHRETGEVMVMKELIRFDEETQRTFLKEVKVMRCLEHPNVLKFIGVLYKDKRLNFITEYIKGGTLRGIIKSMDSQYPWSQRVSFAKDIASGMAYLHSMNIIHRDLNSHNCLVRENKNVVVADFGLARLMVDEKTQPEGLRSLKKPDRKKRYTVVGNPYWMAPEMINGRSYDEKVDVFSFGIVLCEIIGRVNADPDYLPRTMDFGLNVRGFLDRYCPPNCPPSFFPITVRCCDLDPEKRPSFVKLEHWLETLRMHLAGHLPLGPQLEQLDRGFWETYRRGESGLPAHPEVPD
UniProt Q12851: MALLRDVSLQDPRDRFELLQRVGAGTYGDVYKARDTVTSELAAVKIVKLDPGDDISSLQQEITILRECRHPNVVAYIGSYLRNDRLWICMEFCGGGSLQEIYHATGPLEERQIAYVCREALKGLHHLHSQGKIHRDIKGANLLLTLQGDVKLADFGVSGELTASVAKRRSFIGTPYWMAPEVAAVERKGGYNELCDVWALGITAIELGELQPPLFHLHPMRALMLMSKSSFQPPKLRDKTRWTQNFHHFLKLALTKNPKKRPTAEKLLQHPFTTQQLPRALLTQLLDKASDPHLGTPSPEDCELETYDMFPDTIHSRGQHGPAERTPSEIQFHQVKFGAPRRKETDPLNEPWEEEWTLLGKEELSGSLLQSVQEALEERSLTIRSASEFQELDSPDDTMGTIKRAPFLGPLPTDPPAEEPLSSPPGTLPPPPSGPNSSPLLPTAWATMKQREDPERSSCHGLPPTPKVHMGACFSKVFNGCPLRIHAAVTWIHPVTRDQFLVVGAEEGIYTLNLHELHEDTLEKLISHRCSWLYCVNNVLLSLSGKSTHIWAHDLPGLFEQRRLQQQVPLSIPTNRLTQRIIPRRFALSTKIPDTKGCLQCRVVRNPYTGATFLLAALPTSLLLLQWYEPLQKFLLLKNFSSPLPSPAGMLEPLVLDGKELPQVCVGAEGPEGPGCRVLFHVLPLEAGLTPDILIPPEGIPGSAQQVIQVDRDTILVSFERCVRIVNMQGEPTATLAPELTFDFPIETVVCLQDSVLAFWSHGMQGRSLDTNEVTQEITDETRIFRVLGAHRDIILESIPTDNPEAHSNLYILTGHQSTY
UniProt P11362, whole entry, looked up: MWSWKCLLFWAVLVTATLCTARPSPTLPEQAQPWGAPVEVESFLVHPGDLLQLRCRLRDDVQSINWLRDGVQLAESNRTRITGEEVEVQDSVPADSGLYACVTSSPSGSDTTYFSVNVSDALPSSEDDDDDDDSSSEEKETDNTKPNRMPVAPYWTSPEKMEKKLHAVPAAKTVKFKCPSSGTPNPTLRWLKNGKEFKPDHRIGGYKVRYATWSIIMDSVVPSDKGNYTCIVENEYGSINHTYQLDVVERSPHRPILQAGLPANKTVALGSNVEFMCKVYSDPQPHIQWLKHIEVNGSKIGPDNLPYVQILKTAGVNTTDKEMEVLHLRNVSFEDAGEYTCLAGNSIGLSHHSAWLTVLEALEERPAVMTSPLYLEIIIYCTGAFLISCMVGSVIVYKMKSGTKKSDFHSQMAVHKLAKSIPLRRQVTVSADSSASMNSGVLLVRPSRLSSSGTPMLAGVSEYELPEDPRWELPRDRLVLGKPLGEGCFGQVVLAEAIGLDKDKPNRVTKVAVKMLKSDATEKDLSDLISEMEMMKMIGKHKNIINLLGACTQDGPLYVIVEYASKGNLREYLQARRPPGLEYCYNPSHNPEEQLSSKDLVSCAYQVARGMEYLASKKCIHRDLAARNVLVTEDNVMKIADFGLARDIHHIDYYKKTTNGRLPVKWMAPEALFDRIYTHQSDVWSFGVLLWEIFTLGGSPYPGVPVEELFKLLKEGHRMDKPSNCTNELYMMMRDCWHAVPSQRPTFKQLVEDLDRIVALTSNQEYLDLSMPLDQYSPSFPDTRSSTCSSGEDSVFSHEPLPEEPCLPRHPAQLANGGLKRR

Measured: kinase-Nluc reporter destabilization hit call

Cc1ccc(-n2nc(C(C)(C)C)cc2NC(=O)Nc2ccc(OCCN3CCOCC3)c3ccccc23)cc1 [Doramapimod]
inactive: ERN1; 10 µM 0 | FGFR2; 10 µM 0 | FGFR3; 10 µM 0 | FGR; 10 µM 0 | FLT3; 10 µM 0 | FYN; 10 µM 0 | GSK3A; 10 µM 0 | HER2; 10 µM 0 | INSRR; 10 µM 0 | IRAK3; 10 µM 0 | JAK1; 10 µM 0 | LCK; 10 µM 0 | LIMK1; 10 µM 0 | LIMK2; 10 µM 0 | LMTK2; 10 µM 0 | LYN; 10 µM 0 | MAP2K1; 10 µM 0 | MAP2K2; 10 µM 0 | MAP4K2; 10 µM 0

Cc1[nH]c(/C=C2\C(=O)Nc3ccc(F)cc32)c(C)c1C(=O)NC[C@H](O)CN1CCOCC1
inactive: ERN1; 2.5 µM 0 | FGFR1; 2.5 µM 0 | FGFR2; 2.5 µM 0 | FGFR3; 2.5 µM 0 | FGR; 2.5 µM 0 | FLT3; 2.5 µM 0 | FYN; 2.5 µM 0 | GSK3A; 2.5 µM 0 | HER2; 2.5 µM 0 | INSRR; 2.5 µM 0 | IRAK3; 2.5 µM 0 | LCK; 2.5 µM 0 | LIMK1; 2.5 µM 0 | LIMK2; 2.5 µM 0 | LMTK2; 2.5 µM 0 | LYN; 2.5 µM 0 | MAP2K1; 2.5 µM 0 | MAP2K2; 2.5 µM 0 | MAP4K2; 2.5 µM 0

O=S(=O)(c1cccc2c(O)nccc12)N1CCCNCC1 [Hydroxyfasudil (hydrochloride)]
inactive: ERN1; 10 µM 0 | FGFR2; 10 µM 0 | FGFR3; 10 µM 0 | FGR; 10 µM 0 | FLT3; 10 µM 0 | FYN; 10 µM 0 | GSK3A; 10 µM 0 | HER2; 10 µM 0 | INSRR; 10 µM 0 | IRAK3; 10 µM 0 | JAK1; 10 µM 0 | LIMK1; 10 µM 0 | LIMK2; 10 µM 0 | LMTK2; 10 µM 0 | LYN; 10 µM 0 | MAP2K1; 10 µM 0 | MAP2K2; 10 µM 0 | MAP4K2; 10 µM 0

O=C1NCCc2[nH]c(-c3ccncc3)cc21
inactive: ERN1; 2.5 µM 0 | FGFR1; 2.5 µM 0 | FGFR2; 2.5 µM 0 | FGFR3; 2.5 µM 0 | FGR; 2.5 µM 0 | FLT3; 2.5 µM 0 | FYN; 2.5 µM 0 | GSK3A; 2.5 µM 0 | HER2; 2.5 µM 0 | INSRR; 2.5 µM 0 | IRAK3; 2.5 µM 0 | JAK1; 2.5 µM 0 | LIMK1; 2.5 µM 0 | LIMK2; 2.5 µM 0 | LMTK2; 2.5 µM 0 | LYN; 2.5 µM 0 | MAP2K1; 2.5 µM 0 | MAP2K2; 2.5 µM 0 | MAP4K2; 2.5 µM 0

CNC(=O)c1cc(Oc2ccc(NC(=O)Nc3ccc(Cl)c(C(F)(F)F)c3)cc2)ccn1 [Sorafenib]
inactive: ERN1; 2.5 µM 0 | FGFR1; 2.5 µM 0 | FGFR2; 2.5 µM 0 | FGFR3; 2.5 µM 0 | FGR; 2.5 µM 0 | FLT3; 2.5 µM 0 | FYN; 2.5 µM 0 | GSK3A; 2.5 µM 0 | HER2; 2.5 µM 0 | INSRR; 2.5 µM 0 | IRAK3; 2.5 µM 0 | JAK1; 2.5 µM 0 | LIMK1; 2.5 µM 0 | LIMK2; 2.5 µM 0 | LMTK2; 2.5 µM 0 | LYN; 2.5 µM 0 | MAP2K1; 2.5 µM 0 | MAP2K2; 2.5 µM 0 | MAP4K2; 2.5 µM 0

O=S(=O)(c1cccc2c(O)nccc12)N1CCCNCC1 [Hydroxyfasudil]
inactive: ERN1; 10 µM 0 | FGFR2; 10 µM 0 | FGFR3; 10 µM 0 | FGR; 10 µM 0 | FLT3; 10 µM 0 | FYN; 10 µM 0 | GSK3A; 10 µM 0 | HER2; 10 µM 0 | INSRR; 10 µM 0 | IRAK3; 10 µM 0 | JAK1; 10 µM 0 | LIMK1; 10 µM 0 | LIMK2; 10 µM 0 | LMTK2; 10 µM 0 | LYN; 10 µM 0 | MAP2K1; 10 µM 0 | MAP2K2; 10 µM 0 | MAP4K2; 10 µM 0

CC1(C)CNc2cc(NC(=O)c3cccnc3NCc3ccncc3)ccc21 [Motesanib]
inactive: ERN1; 2.5 µM 0 | FGFR2; 2.5 µM 0 | FGFR3; 2.5 µM 0 | FGR; 2.5 µM 0 | FLT3; 2.5 µM 0 | FYN; 2.5 µM 0 | GSK3A; 2.5 µM 0 | HER2; 2.5 µM 0 | INSRR; 2.5 µM 0 | IRAK3; 2.5 µM 0 | JAK1; 2.5 µM 0 | LIMK1; 2.5 µM 0 | LIMK2; 2.5 µM 0 | LMTK2; 2.5 µM 0 | MAP2K1; 2.5 µM 0 | MAP2K2; 2.5 µM 0 | MAP4K2; 2.5 µM 0

N#CC(=Cc1cc(Cl)cc(Cl)c1)c1cccnc1
inactive: FGFR1; 10 µM 0 | FGFR2; 10 µM 0 | FGFR3; 10 µM 0 | GSK3A; 10 µM 0 | HER2; 10 µM 0 | LIMK1; 10 µM 0 | LIMK2; 10 µM 0 | LYN; 10 µM 0 | MAP2K1; 10 µM 0 | MAP4K2; 10 µM 0

C[C@@]1(C(=O)Nc2ccc(F)nc2)CCCN1c1nc(Nc2cc(C3CC3)n[nH]2)c2cccn2n1
inactive: ERN1; 10 µM 0 | FGR; 10 µM 0 | FYN; 10 µM 0 | GSK3A; 10 µM 0 | HER2; 10 µM 0 | INSRR; 10 µM 0 | IRAK3; 10 µM 0 | JAK1; 10 µM 0 | LIMK1; 10 µM 0 | LIMK2; 10 µM 0 | LMTK2; 10 µM 0 | LYN; 10 µM 0 | MAP2K1; 10 µM 0 | MAP2K2; 10 µM 0 | MAP4K2; 10 µM 0

Cc1ccc(Nc2nccc(N(C)c3ccc4c(C)n(C)nc4c3)n2)cc1S(N)(=O)=O [Pazopanib]
inactive: ERN1; 10 µM 0 | FGFR2; 10 µM 0 | FGFR3; 10 µM 0 | FGR; 10 µM 0 | FLT3; 10 µM 0 | GSK3A; 10 µM 0 | HER2; 10 µM 0 | INSRR; 10 µM 0 | IRAK3; 10 µM 0 | JAK1; 10 µM 0 | LCK; 10 µM 0 | LIMK2; 10 µM 0 | LMTK2; 10 µM 0 | LYN; 10 µM 0 | MAP2K1; 10 µM 0 | MAP2K2; 10 µM 0 | MAP4K2; 10 µM 0

2 consecutive entries already listed:
C[C@@]1(C(=O)Nc2ccc(F)nc2)CCCN1c1nc(Nc2cc(C3CC3)n[nH]2)c2cccn2n1
inactive: ERN1; 10 µM 0 | FGR; 10 µM 0 | FYN; 10 µM 0 | GSK3A; 10 µM 0 | HER2; 10 µM 0 | INSRR; 10 µM 0 | IRAK3; 10 µM 0 | JAK1; 10 µM 0 | LIMK1; 10 µM 0 | LIMK2; 10 µM 0 | LMTK2; 10 µM 0 | LYN; 10 µM 0 | MAP2K1; 10 µM 0 | MAP2K2; 10 µM 0 | MAP4K2; 10 µM 0

Cc1ccc(Nc2nccc(N(C)c3ccc4c(C)n(C)nc4c3)n2)cc1S(N)(=O)=O [Pazopanib]
inactive: ERN1; 10 µM 0 | FGFR2; 10 µM 0 | FGFR3; 10 µM 0 | FGR; 10 µM 0 | FLT3; 10 µM 0 | GSK3A; 10 µM 0 | HER2; 10 µM 0 | INSRR; 10 µM 0 | IRAK3; 10 µM 0 | JAK1; 10 µM 0 | LCK; 10 µM 0 | LIMK2; 10 µM 0 | LMTK2; 10 µM 0 | LYN; 10 µM 0 | MAP2K1; 10 µM 0 | MAP2K2; 10 µM 0 | MAP4K2; 10 µM 0

Additional results:

Cc1cc(Nc2cc(N3CCN(C)CC3)nc(/C=C/c3ccccc3)n2)n[nH]1 [ENMD-2076 (Tartrate)]
inactive: ERN1; 2.5 µM 0 | FGFR2; 2.5 µM 0 | FGFR3; 2.5 µM 0 | FGR; 2.5 µM 0 | FLT3; 2.5 µM 0 | FYN; 2.5 µM 0 | GSK3A; 2.5 µM 0 | HER2; 2.5 µM 0 | INSRR; 2.5 µM 0 | IRAK3; 2.5 µM 0 | JAK1; 2.5 µM 0 | LIMK1; 2.5 µM 0 | LIMK2; 2.5 µM 0 | LMTK2; 2.5 µM 0 | LYN; 2.5 µM 0 | MAP2K1; 2.5 µM 0 | MAP2K2; 2.5 µM 0 | MAP4K2; 2.5 µM 0
